Reference: patent EP2801619A1 (Fondazione Edmund Mach, dated 2014)
No constants are given. Whether binding was seen depends on the method and setting. Some entries that bind do so weakly or less than the wild type.

T1: CURVATURE THYLAKOID1B (CURT1B) of Arabidopsis thaliana, endogenous protein in thylakoid membranes (Arabidopsis thaliana) (UniProt Q8LCA1)
T1 sequence: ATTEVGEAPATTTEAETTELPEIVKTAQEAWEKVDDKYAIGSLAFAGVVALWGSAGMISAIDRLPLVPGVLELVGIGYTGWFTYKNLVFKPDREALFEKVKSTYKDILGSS

T2: CURVATURE THYLAKOID1C (CURT1C) of Arabidopsis thaliana, endogenous protein in thylakoid membranes (Arabidopsis thaliana) (UniProt Q9M812)
T2 sequence: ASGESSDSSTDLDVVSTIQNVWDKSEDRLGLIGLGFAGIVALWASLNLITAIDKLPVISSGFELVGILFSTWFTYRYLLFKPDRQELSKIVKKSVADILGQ

B1: CURVATURE THYLAKOID1A (CURT1A) of Arabidopsis thaliana, endogenous protein in thylakoid membranes (other)
chain: ASSEETSSIDTNELITDLKEKWDGLENKSTVLIYGGGAIVAVWLSSIVVGAINSVPLLPKVMELVGLGYTGWFVYRYLLFKSSRKELAEDIESLKKKIAGSE
notes: Thylakoid membrane protein as found in plant thylakoids; also called At4g01150
B2: CURT1A translated in an E. coli S12 cell-free system in the presence of liposomes (CURT1A proteoliposomes) (protein)
chain: ASSEETSSIDTNELITDLKEKWDGLENKSTVLIYGGGAIVAVWLSSIVVGAINSVPLLPKVMELVGLGYTGWFVYRYLLFKSSRKELAEDIESLKKKIAGSE
B3: CURVATURE THYLAKOID1B (CURT1B) of Arabidopsis thaliana, endogenous protein in thylakoid membranes (protein)
chain: ATTEVGEAPATTTEAETTELPEIVKTAQEAWEKVDDKYAIGSLAFAGVVALWGSAGMISAIDRLPLVPGVLELVGIGYTGWFTYKNLVFKPDREALFEKVKSTYKDILGSS

Legend:
[1] = molecular target: T1, CURVATURE THYLAKOID1B (CURT1B) of Arabidopsis thaliana, endogenous protein in thylakoid membranes (Arabidopsis thaliana); experiment: 2D-BN/SDS-PAGE of thylakoid multiprotein complexes (Fig. 5b)
[2] = molecular target: T1, CURVATURE THYLAKOID1B (CURT1B) of Arabidopsis thaliana, endogenous protein in thylakoid membranes (Arabidopsis thaliana); experiment: 2D BN/SDS-PAGE of digitonin-solubilised thylakoid complexes, immunoblot (co-migration)
[3] = molecular target: T1, CURVATURE THYLAKOID1B (CURT1B) of Arabidopsis thaliana, endogenous protein in thylakoid membranes (Arabidopsis thaliana); experiment: chemical crosslinking (BS3) of thylakoid proteins, SDS-PAGE and immunoblot, WT against curt1 mutants
[4] = molecular target: CURT1A translated in an E. coli S12 cell-free system in the presence of liposomes (CURT1A proteoliposomes) (Arabidopsis thaliana) (UniProt O04616); experiment: crosslinking of CURT1A proteoliposomes with DSP or DTSSP, SDS-PAGE and Western analysis
[5] = molecular target: CURT1A translated in an E. coli S12 cell-free system in the presence of liposomes (CURT1A proteoliposomes) (Arabidopsis thaliana) (UniProt O04616); experiment: crosslinking of CURT1A proteoliposomes with DSP or DTSSP, SDS-PAGE and Western analysis (Fig. 17c)
[6] = molecular target: T2, CURVATURE THYLAKOID1C (CURT1C) of Arabidopsis thaliana, endogenous protein in thylakoid membranes (Arabidopsis thaliana); experiment: 2D-BN/SDS-PAGE of thylakoid multiprotein complexes (Fig. 5b)
[7] = molecular target: T2, CURVATURE THYLAKOID1C (CURT1C) of Arabidopsis thaliana, endogenous protein in thylakoid membranes (Arabidopsis thaliana); experiment: 2D BN/SDS-PAGE of digitonin-solubilised thylakoid complexes, immunoblot (co-migration)

Binder | binding [1] | binding [2] | binding [3] | binding [4] | binding [5] | binding [6] | binding [7]
B1 | binds | binds | binds |  |  |  | 
B2 |  |  |  | binds | binds |  | 
B3 |  |  | binds |  |  | binds | binds
